Experimental data published in PubChem BioAssay AID218 (DTP/NCI, 2004).
The list is a part of this screen's results and no random one: it is rich in T/C values a quarter to a half above the control, in often repeated tests (any T/C) and in doses without a T/C. Further doses and runs are listed elsewhere. T/C gives the treated animals as a percentage of the vehicle group. Schedule codes are those of the source, read here as Q, the interval in days (D) or hours (H), X, the number of doses. Some T/C values are followed by the survivors on the day toxicity was checked, most often the fifth; without a count, all were alive then. Some entries give survivors of the animals treated and no T/C: the source files T/C as zero there, which appears to mark a toxic dose or a test without result, not a measured value. Counts of survivors are from the toxicity check (mostly the fifth day) where no day follows; animals may have died later. Non-standard residues stand in square brackets, D forms with d. Residues, ends and D or L forms follow the SMILES beside them. Ac5c = NC1(C(=O)O)CCCC1

Tested on: C57BL/6 mice, Adenocarcinoma 755 sc, tumor weight T/C
Test: NCI In Vivo Anticancer Drug Screen. Data for tumor model Adenocarcinoma 755 (subcutaneous) in C57BL/6 mice
Settings: T/C endpoint: mean tumor weight, higher T/C = larger tumour; for T/C: evaluated on day 12
Method: The antitumor activity of compounds was measured in mice bearing transplantable tumors. Survival or tumor size were measured and the results are expressed as the measurement made in the treated group (T) divided by the measurement made in the vehicle treated control group (C). The tumor model used in this assay is Adenocarcinoma 755 (subcutaneous) in C57BL/6 mice

[1] = dose: 200.0 mg/kg/injection, schedule: Q01DX011 (ip), vehicle: saline

Question: Which survivor count (dose: 225.0 mg/kg/injection, schedule: Q01DX011 (ip), vehicle: carboxymethylcellulose (CMC)) does the source give for `CCOC(=O)n1cnc2ncnc(N)c21` here?
Answer: Its survivor count is 0 of 10.

Question: What does the source list for `CCCCNc1ncnc2nc[nH]c12`?
Answer: survivor count (dose: 40.0 mg/kg/injection, schedule: Q01DX011 (ip), vehicle: carboxymethylcellulose (CMC)): 5 of 10; survivor count (dose: 50.0 mg/kg/injection, schedule: Q01DX011 (ip), vehicle: saline): 3 of 10; survivor count (dose: 100.0 mg/kg/injection, schedule: Q01DX011 (ip), vehicle: saline): 0 of 10

Question: Which results are given for `O=C(c1ccc(C(=O)N2CC2)cc1)N1CC1`?
Answer: T/C (dose: 3.0 mg/kg/injection, schedule: Q01DX011 (ip), vehicle: methylcellulose (MC)): 126 % of control [9 of 10 alive]; T/C (dose: 6.25 mg/kg/injection, schedule: Q01DX011 (ip), vehicle: methylcellulose (MC)): 129 % of control [9 of 10 alive]

Question: With `CC(C)C(=O)OCC1OC(n2cnc3c(=S)nc(N)[nH]c32)C(OC(=O)C(C)C)C1OC(=O)C(C)C` (stereo unspecified) as the compound, how does the survivor count (dose: 6.0 mg/kg/injection, schedule: Q01DX011 (ip), vehicle: saline) read?
Answer: The survivor count was 2 of 10.

Question: What about the survivor count (dose: 12.0 mg/kg/injection, schedule: Q01DX011 (ip), vehicle: saline) of the same compound?
Answer: Its survivor count is 0 of 10.

Question: With `CCCCOC(=O)C1(N)CCCC1` as the compound, how does the survivor count (dose: 112.0 mg/kg/injection, schedule: Q01DX011 (ip), vehicle: saline) read?
Answer: The survivor count was 6 of 12.

Question: Which results are given for `C1CN1c1nc(N2CC2)nc(N2CC2)n1`?
Answer: survivor count (dose: 0.75 mg/kg/injection, schedule: Q01DX011 (ip), vehicle: saline): 5 of 10; T/C (dose: 0.75 mg/kg/injection, schedule: Q02DX006 (ip), vehicle: saline): 125 % of control

Question: How did the survivor count (dose: 133.0 mg/kg/injection, schedule: Q01DX011 (ip), vehicle: saline) turn out when `c1ccc2nc(-c3cc4ccccc4s3)ccc2c1` was run?
Answer: Its survivor count is 4 of 10.

Question: And the survivor count [1]?
Answer: Its survivor count is 6 of 10.

Question: What about the survivor count (dose: 450.0 mg/kg/injection, schedule: Q01DX011 (ip), vehicle: saline) of the same compound?
Answer: Its survivor count is 6 of 10.

Question: `OCC1OC(n2cnc3c(=S)nc[nH]c32)C(O)C1O` (stereo unspecified) was tested. Which survivor count (dose: 80.0 mg/kg/injection, schedule: Q01DX011 (oral), vehicle: alkali diluted with saline) did it give?
Answer: The survivor count was 5 of 10.

Question: And the survivor count (dose: 120.0 mg/kg/injection, schedule: Q01DX011 (oral), vehicle: alkali diluted with saline)?
Answer: Its survivor count is 2 of 10.

Question: And the survivor count (dose: 125.0 mg/kg/injection, schedule: Q01DX011 (ip), vehicle: carboxymethylcellulose (CMC))?
Answer: Its survivor count is 0 of 10.

Question: And the survivor count (dose: 150.0 mg/kg/injection, schedule: Q01DX011 (ip), vehicle: carboxymethylcellulose (CMC))?
Answer: Its survivor count is 0 of 10.

Question: What about the survivor count (dose: 960.0 mg/kg/injection, schedule: Q01DX001 (oral), vehicle: alkali diluted with saline) of the same compound?
Answer: The survivor count was 3 of 10.

Question: Which survivor count [1] does the source give for `NCC(=O)NC1(C(=O)O)CCCC1` (H-Gly-[Ac5c]-OH) here?
Answer: Its survivor count is 0 of 10.

Question: Which survivor count [1] does the source give for `O=[N+]([O-])c1ccc(CSc2ncnc3nc[nH]c23)cc1` here?
Answer: Its survivor count is 6 of 10.
